Assay results reported in patent US20210268122A1, “INHIBITION OF S[…] PROTEIN INHIBITORS OF CYSTEINE PROTEASES” (DYVE BIOSCIENCES, INC., priority 2017, published 2021).

Test system: LL/2 cells
Details: SCID-beige mice, topical 100 μL×3 daily
Procedure: In vivo tests were performed as follows: SCID-beige mice aged 6 weeks were injected intravenously with 1×10^6 LL/2 cells.
The treatment groups were:
Group A (Negative Control): Untreated
Volumes of primary tumors were measured twice weekly.

## CC(C)C[C@H](NC(=O)[C@H]1O[C@@H]1C(=O)O)C(=O)NCCCCN=C(N)N (relative stereo) [Group E-64, L-trans-Epoxysuccinyl-leucylamido (4-guanidino) butane]
  survival compared to both the negative and positive control groups: better survival
